From the supplement of paper PMC4604168 (melanoma cell lines) come the findings set out here.

The list shows a part of the results. Many values rest on one well or one pass, so single values are uncertain.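 Imaging used 1,536-well plates; nuclei positive for cleaved PARP by antibody were divided by total DNA-stained nuclei to yield the apoptosis fraction. Doses for screening kept most cells viable, and cell lines differ markedly in resting and induced cleaved-PARP levels.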

This assay has as its system IST-MEL1. Briefly: cleaved PARP positive nuclei fraction relative to DMSO control; melanoma cells; higher = more apoptosis. Particulars: library dose: low library concentration; 72 h.
As to `CN(NC(=O)CC(=O)NN(C)C(=S)c1ccccc1)C(=S)c1ccccc1` + CCCCCCCCCCCC1=C(O)C(=O)C=C(O)C1=O [Embelin] (first compound 0.006 µM, partner dose 1.2 µM), the “cleaved PARP positive nuclei fraction” value worked out at 142%.

Regarding `COc1ccc2c(c1)CCC1C2CCC2(C)C(NCCCCCCN3C(=O)C=CC3=O)CCC12` (configuration not stated) + O=c1cc(-c2cccc3c2Sc2ccccc2S3)oc(N2CCOCC2)c1 [KU55933] (first compound 0.4 µM, partner dose 1 µM), the “cleaved PARP positive nuclei fraction” value was found to be 114%.

Regarding `COc1ccc2c(c1)CCC1C2CCC2(C)C(NCCCCCCN3C(=O)C=CC3=O)CCC12` (configuration not stated) + Oc1nc(-c2ccc(C(F)(F)F)cc2)nc2c1CSCC2 [XAV939] (first compound 0.4 µM, partner dose 2 µM), the “cleaved PARP positive nuclei fraction” value stood at 249%.

Consider `O=C(O)c1ccc(-c2c[nH]c3ncc(-c4ccccc4)cc23)cc1C1CCCC1` + COc1ccc2c(c1)CCC1C2CCC2(C)C(NCCCCCCN3C(=O)C=CC3=O)CCC12 [U73122] (first compound 0.16 µM, partner dose 0.4 µM), for which the “cleaved PARP positive nuclei fraction” value stood at 94.5%.

Consider `CCc1ccc(CCOc2ccc(CC3SC(=O)NC3=O)cc2)nc1` (configuration not stated) [pioglitazone] + Oc1nc(-c2ccc(C(F)(F)F)cc2)nc2c1CSCC2 [XAV939] (first compound 2 µM, partner dose 2 µM), for which the “cleaved PARP positive nuclei fraction” value stood at 85.9%.

Consider `COc1cc2c(Oc3ccc4[nH]c(C)cc4c3F)ncnc2cc1OCCCN1CCCC1` [cediranib] + COc1cc2ncnc(Nc3ccc(Oc4ccccc4)cc3)c2cc1OC [SrcI1] (first compound 0.4 µM, partner dose 2 µM), for which the “cleaved PARP positive nuclei fraction” value was 260%.

`N#Cc1c(O)c2c(-c3ccc(-c4ccccc4O)cc3)csc2[nH]c1=O` + COc1cc2ncnc(Nc3ccc(Oc4ccccc4)cc3)c2cc1OC [SrcI1] (first compound 2 µM, partner dose 2 µM): the “cleaved PARP positive nuclei fraction” value turned out to be 94.3%.

`CN(NC(=O)CC(=O)NN(C)C(=S)c1ccccc1)C(=S)c1ccccc1` + CC(C)CCN1c2nc(Nc3cc(F)c(O)c(F)c3)ncc2N(C)C(=O)C1C [BID1870] (first compound 0.006 µM, partner dose 0.2 µM): the “cleaved PARP positive nuclei fraction” value worked out at 65.7%.

For the compound `CCc1ccc(CCOc2ccc(CC3SC(=O)NC3=O)cc2)nc1` (configuration not stated) [pioglitazone] + N#Cc1c(O)c2c(-c3ccc(-c4ccccc4O)cc3)csc2[nH]c1=O [A769662] (first compound 2 µM, partner dose 2 µM), the “cleaved PARP positive nuclei fraction” value stood at 54.8%.

With `Oc1nc(-c2ccc(C(F)(F)F)cc2)nc2c1CSCC2` + CCCCCCCCCCCC1=C(O)C(=O)C=C(O)C1=O [Embelin] (first compound 2 µM, partner dose 1.2 µM), the “cleaved PARP positive nuclei fraction” value came to 114%.

With `CCN(CC)CCCCNc1ncc2cc(-c3cc(OC)cc(OC)c3)c(NC(=O)NC(C)(C)C)nc2n1` + Cn1cc(/C=C2\C(=O)Nc3cccnc32)c2ccccc21 [GW441756] (first compound 0.1 µM, partner dose 0.4 µM), the “cleaved PARP positive nuclei fraction” value stood at 52.6%.

Turning to `CCc1ccc(CCOc2ccc(CC3SC(=O)NC3=O)cc2)nc1` (configuration not stated) [pioglitazone] + Cn1cc(/C=C2\C(=O)Nc3cccnc32)c2ccccc21 [GW441756] (first compound 2 µM, partner dose 0.4 µM), the “cleaved PARP positive nuclei fraction” value turned out to be 121%.

For `COc1ccc(COc2ccc(Cc3cnc(N)nc3N)cc2OC)cc1` + COc1cc2ncnc(Nc3ccc(Oc4ccccc4)cc3)c2cc1OC [SrcI1] (first compound 1 µM, partner dose 2 µM), the “cleaved PARP positive nuclei fraction” value was determined as 68.3%.

`O=S(=O)(c1ccccc1)N(CC(F)(F)F)c1ccc(C(O)(C(F)(F)F)C(F)(F)F)cc1` + COc1cc2ncnc(Nc3ccc(Oc4ccccc4)cc3)c2cc1OC [SrcI1] (first compound 1.4 µM, partner dose 2 µM): the “cleaved PARP positive nuclei fraction” value worked out at 125%.

With `COc1ccc2c(c1)CCC1C2CCC2(C)C(NCCCCCCN3C(=O)C=CC3=O)CCC12` (configuration not stated) + Cn1cc(/C=C2\C(=O)Nc3cccnc32)c2ccccc21 [GW441756] (first compound 0.4 µM, partner dose 0.4 µM), the “cleaved PARP positive nuclei fraction” value stood at 71.6%.

Consider `CN(NC(=O)CC(=O)NN(C)C(=S)c1ccccc1)C(=S)c1ccccc1` + Cc1cc([N+](=O)[O-])ccc1NS(=O)(=O)c1cc(Cl)ccc1Cl [FH535] (first compound 0.006 µM, partner dose 1 µM), for which the “cleaved PARP positive nuclei fraction” value was 124%.

As to `N#Cc1c(O)c2c(-c3ccc(-c4ccccc4O)cc3)csc2[nH]c1=O` + c1cc(-c2cnn3cc(-c4ccc(OCCN5CCCCC5)cc4)cnc23)ccn1 [Dorsomorphin] (first compound 2 µM, partner dose 0.4 µM), the “cleaved PARP positive nuclei fraction” value was determined as 133%.
